Reference: patent US8697123B2, “Medication on the basis of 3,3′-diindolylmethane (DIM) with high-bioavailability and its use in treatment of human hyperplastic and inflammatory diseases” (Zakrytoye akstionernoye obschestvo “VELES FARMA”, priority 2010, dated 2014)
For at least one compound, name, drawing or mass did not settle the structure.

Experiment: Clinical efficiency of DIM-HB and crystalline DIM in equal doses
Type: in vivo, human
Conditions: patients
From the text: All classical studies compared the efficiencies of DIM-HB and crystalline DIM in equal doses.
These differences are probably attributed to effective therapeutic DIM concentrations reached in the peripheral blood and target tissues in response to DIM-HB treatment.

c1ccc2c(Cc3c[nH]c4ccccc34)c[nH]c2c1 [Crystalline DIM, 3,3′-diindolylmethane]
Clinical efficiency (dose 10 mg): −
Clinical efficiency (dose 100 mg): −
